In paper PMC4368798:

Columns and labels:
[1] = molecular target: pro-uPA K338/179A K358A (Homo sapiens) (UniProt P00749); assay: SPR; details: 15 nM aptamer, 2'-fluoro pyrimidines (2'-F-C, 2'-F-U), SPR: HBS (20 mM HEPES, 140 mM NaCl, pH 7.4), 2 mM MgCl2, 0.1% BSA, 0.005% Tween 20, temperature not stated, recombinant protein, residues 21-431, synthetic backbone
[2] = molecular target: pro-uPA wild type (Homo sapiens) (UniProt P00749); assay: SPR; details: 15 nM aptamer, wild-type reference; 2'-fluoro pyrimidines (2'-F-C, 2'-F-U); SPR: HBS (20 mM HEPES, 140 mM NaCl, pH 7.4), 2 mM MgCl2, 0.1% BSA, 0.005% Tween 20, temperature not stated; recombinant protein; residues 21-431; synthetic backbone
[3] = molecular target: pro-uPA R323/166A R343A (Homo sapiens) (UniProt P00749); assay: SPR; details: 15 nM aptamer, 2'-fluoro pyrimidines (2'-F-C, 2'-F-U), SPR: HBS (20 mM HEPES, 140 mM NaCl, pH 7.4), 2 mM MgCl2, 0.1% BSA, 0.005% Tween 20, temperature not stated, recombinant protein, residues 21-431, synthetic backbone
[4] = molecular target: pro-uPA W30A W50A (Homo sapiens) (UniProt P00749); assay: SPR; details: 15 nM aptamer, not among reduced mutants, plasmin activation of W30A also inhibited; 2'-fluoro pyrimidines (2'-F-C, 2'-F-U); SPR: HBS (20 mM HEPES, 140 mM NaCl, pH 7.4), 2 mM MgCl2, 0.1% BSA, 0.005% Tween 20, temperature not stated; recombinant protein; residues 21-431; synthetic backbone
pro-uPA wild type + uPAR [5] = assay: SPR competition; details: no inhibition of 10 nM pro-uPA:uPAR binding to vitronectin; 2'-fluoro pyrimidines (2'-F-C, 2'-F-U); SAXS: HBS, 2 mM MgCl2, 25 C; recombinant protein; synthetic backbone
[6] = molecular target: pro-uPA R391/231A R411A (Homo sapiens) (UniProt P00749); assay: SPR; details: 15 nM aptamer, binding not affected; 2'-fluoro pyrimidines (2'-F-C, 2'-F-U); SPR: HBS (20 mM HEPES, 140 mM NaCl, pH 7.4), 2 mM MgCl2, 0.1% BSA, 0.005% Tween 20, temperature not stated; recombinant protein; residues 21-431; synthetic backbone
[7] = molecular target: pro-uPA K61A K81A (Homo sapiens) (UniProt P00749); assay: SPR; details: 15 nM aptamer, 25-50% reduction; 2'-fluoro pyrimidines (2'-F-C, 2'-F-U); SPR: HBS (20 mM HEPES, 140 mM NaCl, pH 7.4), 2 mM MgCl2, 0.1% BSA, 0.005% Tween 20, temperature not stated; recombinant protein; residues 21-431; synthetic backbone
pro-uPA wild type + uPAR [8] = assay: SPR; details: 100 nM aptamer on captured pro-uPA:uPAR; 2'-fluoro pyrimidines (2'-F-C, 2'-F-U); SPR: HBS (20 mM HEPES, 140 mM NaCl, pH 7.4), 2 mM MgCl2, 0.1% BSA, 0.005% Tween 20, temperature not stated; recombinant protein; synthetic backbone
[9] = molecular target: pro-uPA K48A K68A (Homo sapiens) (UniProt P00749); assay: SPR; details: 15 nM aptamer, 25-50% reduction; 2'-fluoro pyrimidines (2'-F-C, 2'-F-U); SPR: HBS (20 mM HEPES, 140 mM NaCl, pH 7.4), 2 mM MgCl2, 0.1% BSA, 0.005% Tween 20, temperature not stated; recombinant protein; residues 21-431; synthetic backbone
[10] = molecular target: pro-uPA K98A K118A (Homo sapiens) (UniProt P00749); assay: SPR; details: 15 nM aptamer, 25-50% reduction; 2'-fluoro pyrimidines (2'-F-C, 2'-F-U); SPR: HBS (20 mM HEPES, 140 mM NaCl, pH 7.4), 2 mM MgCl2, 0.1% BSA, 0.005% Tween 20, temperature not stated; recombinant protein; residues 21-431; synthetic backbone
[11] = molecular target: pro-uPA K46A K66A (Homo sapiens) (UniProt P00749); assay: SPR; details: 15 nM aptamer, 25-50% reduction; 2'-fluoro pyrimidines (2'-F-C, 2'-F-U); SPR: HBS (20 mM HEPES, 140 mM NaCl, pH 7.4), 2 mM MgCl2, 0.1% BSA, 0.005% Tween 20, temperature not stated; recombinant protein; residues 21-431; synthetic backbone
[12] = molecular target: pro-uPA Y284/127A Y304A (Homo sapiens) (UniProt P00749); assay: SPR; details: 15 nM aptamer, binding not affected; 2'-fluoro pyrimidines (2'-F-C, 2'-F-U); SPR: HBS (20 mM HEPES, 140 mM NaCl, pH 7.4), 2 mM MgCl2, 0.1% BSA, 0.005% Tween 20, temperature not stated; recombinant protein; residues 21-431; synthetic backbone
[13] = molecular target: pro-uPA N22A N42A (Homo sapiens) (UniProt P00749); assay: SPR; details: 15 nM aptamer, 25-50% reduction; 2'-fluoro pyrimidines (2'-F-C, 2'-F-U); SPR: HBS (20 mM HEPES, 140 mM NaCl, pH 7.4), 2 mM MgCl2, 0.1% BSA, 0.005% Tween 20, temperature not stated; recombinant protein; residues 21-431; synthetic backbone

Sequence: GGGGCCACCAACGACAUUCAUUCGCACGCUGUGUGGGGAUUAGUCCCGAUGUUGUUGAUAUAAAUAGUGCCCAUGGAUC [upanap-126]
- binding result ([1]; 25-50% reduction): binds more weakly
- binding result [2]: binds
- binding result ([3]; 25-50% reduction): binds more weakly
- binding result [4]: binds

Sequence: GGGGCCACCAACGACAUUUGCGACUGUUAUAACCUAACAGCGACGUAAAGAUAGUUGAUAUAAAUAGUGCCCAUGGAUC [upanap-12]
- binding result (pro-uPA wild type + uPAR [5]): no binding
- binding result ([1]; binding not affected): binds
- binding result [6]: binds
- binding result [7]: binds more weakly
- binding result (pro-uPA wild type + uPAR [8]): no binding
- binding result [9]: binds more weakly
- binding result [10]: binds more weakly
- binding result [11]: binds more weakly
- binding result [12]: binds
- binding result [2]: binds
- binding result ([3]; binding not affected): binds
- binding result [13]: binds more weakly

For some of these results: The comparison behind a weaker result is the experiment's own reference, which may not be listed here. For some of these results: The exact form of at least one protein or probe is not confirmed. For some of these results: No signal at the amounts used counts as a negative. For some of these results: At least one verdict rests on a figure or table, not on a statement of the authors.
